In paper PMC5095016 one finds binding data, which are given here for one substance.

The chains behind the UniProt entries cited, without tags or fusion partners.
UniProt P51532: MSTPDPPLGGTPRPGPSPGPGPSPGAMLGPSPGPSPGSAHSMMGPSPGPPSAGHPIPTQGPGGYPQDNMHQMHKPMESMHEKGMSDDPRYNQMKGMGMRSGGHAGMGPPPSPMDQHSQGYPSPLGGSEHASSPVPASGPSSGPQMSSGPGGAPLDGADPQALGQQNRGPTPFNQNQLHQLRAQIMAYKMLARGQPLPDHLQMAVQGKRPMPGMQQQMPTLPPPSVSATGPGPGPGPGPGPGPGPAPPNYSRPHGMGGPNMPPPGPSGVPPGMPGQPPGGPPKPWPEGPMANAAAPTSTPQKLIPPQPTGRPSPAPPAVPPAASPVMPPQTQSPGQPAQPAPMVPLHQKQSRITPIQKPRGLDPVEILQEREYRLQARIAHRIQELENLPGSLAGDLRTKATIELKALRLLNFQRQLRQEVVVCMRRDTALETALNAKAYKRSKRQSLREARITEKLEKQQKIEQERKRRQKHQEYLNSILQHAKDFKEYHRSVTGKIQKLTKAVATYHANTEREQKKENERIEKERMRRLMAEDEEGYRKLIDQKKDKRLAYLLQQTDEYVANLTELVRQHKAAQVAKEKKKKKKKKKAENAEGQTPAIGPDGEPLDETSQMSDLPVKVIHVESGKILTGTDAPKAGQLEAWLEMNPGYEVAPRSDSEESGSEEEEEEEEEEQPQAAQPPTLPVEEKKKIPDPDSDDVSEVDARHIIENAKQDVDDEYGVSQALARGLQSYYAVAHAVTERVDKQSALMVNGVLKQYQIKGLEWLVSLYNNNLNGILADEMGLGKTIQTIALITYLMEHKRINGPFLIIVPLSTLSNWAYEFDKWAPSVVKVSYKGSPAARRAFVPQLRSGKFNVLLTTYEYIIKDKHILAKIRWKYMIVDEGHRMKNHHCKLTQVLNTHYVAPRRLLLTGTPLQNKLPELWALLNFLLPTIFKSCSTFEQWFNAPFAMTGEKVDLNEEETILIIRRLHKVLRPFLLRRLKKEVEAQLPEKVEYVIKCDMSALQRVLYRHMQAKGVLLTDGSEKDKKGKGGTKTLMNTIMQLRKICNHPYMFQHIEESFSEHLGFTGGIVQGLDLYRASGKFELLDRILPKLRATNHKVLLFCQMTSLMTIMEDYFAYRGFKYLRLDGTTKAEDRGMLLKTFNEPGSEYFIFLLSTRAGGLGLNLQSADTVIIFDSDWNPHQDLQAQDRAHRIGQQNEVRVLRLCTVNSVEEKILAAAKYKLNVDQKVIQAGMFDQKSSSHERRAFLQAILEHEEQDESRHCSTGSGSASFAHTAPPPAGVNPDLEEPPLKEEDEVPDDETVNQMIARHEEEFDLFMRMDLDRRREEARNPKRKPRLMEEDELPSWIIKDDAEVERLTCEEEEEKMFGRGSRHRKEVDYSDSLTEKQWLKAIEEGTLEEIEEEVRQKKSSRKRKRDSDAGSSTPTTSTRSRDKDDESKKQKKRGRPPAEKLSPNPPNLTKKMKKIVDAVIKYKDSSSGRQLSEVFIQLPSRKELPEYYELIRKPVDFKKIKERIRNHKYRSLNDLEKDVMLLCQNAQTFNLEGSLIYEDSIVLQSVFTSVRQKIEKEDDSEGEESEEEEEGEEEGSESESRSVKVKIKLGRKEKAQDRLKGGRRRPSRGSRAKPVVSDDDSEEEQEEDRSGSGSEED
UniProt P40763: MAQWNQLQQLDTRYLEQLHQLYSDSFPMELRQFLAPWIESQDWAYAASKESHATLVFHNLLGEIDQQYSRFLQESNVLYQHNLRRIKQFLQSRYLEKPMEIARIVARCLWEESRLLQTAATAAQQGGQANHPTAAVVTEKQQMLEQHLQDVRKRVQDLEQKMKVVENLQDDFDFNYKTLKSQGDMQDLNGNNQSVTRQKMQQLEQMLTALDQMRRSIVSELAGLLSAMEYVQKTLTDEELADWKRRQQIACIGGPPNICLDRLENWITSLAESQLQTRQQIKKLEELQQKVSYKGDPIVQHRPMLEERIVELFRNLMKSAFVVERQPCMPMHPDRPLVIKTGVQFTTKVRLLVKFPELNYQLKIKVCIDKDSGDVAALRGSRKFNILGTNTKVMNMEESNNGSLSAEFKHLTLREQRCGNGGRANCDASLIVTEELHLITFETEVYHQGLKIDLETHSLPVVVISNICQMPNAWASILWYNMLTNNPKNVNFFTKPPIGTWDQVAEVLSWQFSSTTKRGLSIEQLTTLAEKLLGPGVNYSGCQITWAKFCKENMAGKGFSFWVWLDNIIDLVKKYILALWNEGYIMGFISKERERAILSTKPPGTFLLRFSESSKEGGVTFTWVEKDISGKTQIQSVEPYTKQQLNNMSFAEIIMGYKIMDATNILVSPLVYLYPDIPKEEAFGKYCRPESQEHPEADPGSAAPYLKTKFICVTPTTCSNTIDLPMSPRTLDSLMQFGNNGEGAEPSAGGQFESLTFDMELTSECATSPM

The assay deals with BRG1 (also known as SMARCA4) (human (endogenous in LoVo)) (UniProt P51532). Description: co-IP; immunoprecipitation with anti-BRG1 or anti-STAT3 antibodies in LoVo cells, followed by immunoblotting; endogenous proteins. (Immunoblotting shows a protein as a band on a membrane.)

Results are given in words; binding and its absence hold for the method and conditions named. In cells and extracts the contact can be indirect. Some binding calls cover weakened binding; strength is not graded here.

STAT3 (from UniProt P40763 1-770): the binding entry is recorded as “binds”.
